# The other results are listed elsewhere or left out.
# System: T1, CTL2-GFP (C. trachomatis L2/434/Bu, GFP-expressing)
# T1 construct: L2/434/Bu, GFP-expressing
# Parameters: species or system HeLa; Intracellular C. trachomatis growth in HeLa cells, bulk GFP fluorescence relative to DMSO
# Conditions: bulk GFP, single well; 28.5 h, 10 µM; inhibitor
row,Structure (SMILES),% of control remaining
1,Cc1ccc(-n2c(=O)[nH]cc(C(=O)Nc3ccc(C)c(F)c3)c2=O)cc1C [CBK287550],126.649%
2,Cc1ccccc1N1CCC(CNC(=O)CCn2nc(C)c(C)c2C)C1 (centres unmarked) [CBK307465],165.281%
3,Cc1cccnc1C1(O)CCN(C(=O)Cc2ccccc2F)CC1 [CBK283617],125.007%
4,COC(=O)c1ccc2c(=O)n(CC(C)O)c(SC3CCOC3=O)nc2c1 (centres unmarked) [CBK304997],119.364%
5,CNC1CCN(S(=O)(=O)c2sc3ccc(C(C)C)cc3c2C)C1 (centres unmarked) [CBK170067],106.891%
6,CC(CC(=O)O)CC(=O)Nc1ccccc1C(=O)O (centres unmarked) [CBK265671],100%
7,CCCCC(c1cccnc1)N(C)C(=O)c1cc(C)c(CC)n(C)c1=O (centres unmarked) [CBK306999],117.408%
8,O=c1[nH]c2ncc(-c3cccnc3)nc2n1CCN1CCOCC1 [CBK065070],101.518%
9,COc1ccc([N+](=O)[O-])cc1NC(=O)c1ccc(-c2cc3ccccc3oc2=O)cc1 [CBK267325],146.281%
10,O=C(NCCc1cccs1)Nc1cc(C(F)(F)F)cc(C(F)(F)F)c1 [CBK043718],71.9211%
11,O=c1c2c3c(sc2n2c(S)nnc2n1Cc1ccccc1)CN(Cc1ccccc1)CC3 [CBK262973],115.095%
12,Cc1ncncc1C(=O)NCC1(c2ccccc2F)CCCC1 [CBK281411],105.949%
13,CCn1c2ccccc2c2cc(CN3CCN(Cc4c[nH]c5ccccc45)CC3)ccc21 [CBK263167],138.032%
14,C=CCNS(=O)(=O)c1ccc(NC(=O)Cc2cccc3ccccc23)cc1 [CBK269379],91.3423%
15,CC(=O)Nc1ccc(CCNC(=O)NCc2nc(C3CC3)no2)cc1 [CBK306221],106.353%
16,O=C(CNC(=O)c1ccccc1F)N/N=C/c1cccs1 [CBK261953],98.8218%
17,c1ccc(CSc2nnc(COc3cccc4ccccc34)n2Cc2ccccc2)cc1 [CBK267215],118.639%
18,COc1cccc(NC(=O)N[C@H]2[C@H](O)[C@@H](N3CCOCC3)[C@@H]3OC[C@H]2O3)c1 [CBK288821],130.985%
19,CCOC(=O)CNc1nc(OC)cc(OC)n1 [CBK093392],91.7064%
20,O=C(NCCCN1CCOCC1)c1ccccc1Br [CBK262602C],120.683%
21,O=C(O)C1CCCN(C(=O)CCc2c[nH]c3ccccc23)C1 (centres unmarked) [CBK286925],109.347%
22,Clc1ccc(CNCc2cccnc2)cc1 [CBK086257C],144.918%
23,CN1CCC2(CC1)SC(=O)Nc1ccc(Br)cc12 [CBK017821B],108.55%
24,COc1ccc2[nH]c3c(c2c1)CCNC31CCCN(Cc2ccc(OC(F)(F)F)cc2)C1 (centres unmarked) [CBK039387],90.2791%
25,CS(=O)(=O)c1nc(-c2ccccc2)ns1 [CBK017338],147.77%
26,Cc1ccc(C2(C(=O)NCCn3ccnc3C)CCOCC2)cc1 [CBK281858],122.138%
27,COCC(=O)NC1CC(C)(C)Cc2c1cnn2-c1ccc(C)cc1 (centres unmarked) [CBK282866],76.8753%

row,Structure (SMILES),% of control remaining
1,Cc1cc(COc2nccnc2N2CCN(CC(N)=O)CC2)no1 [CBK084192],124.651%
2,O=C1NC2(CCN(C(=O)Cc3ccsc3)CC2)Nc2ccccc21 [CBK283963],104.977%
3,O=C(CN1CCN(C/C=C/c2ccccc2)CC1)Nc1ccc(C2CCCCC2)cc1 [CBK074497],95.8979%
4,CCC(=O)N1CCN(CCCC(=O)c2ccc(F)cc2)CC1 [CBK025017C],138.827%
5,Nc1ncnc2nc(-c3ccncc3)nn12 [CBK288550],143.703%
6,O=C(O)C1CSC(c2cccc(Cl)c2Cl)N1 (centres unmarked) [CBK077526],82.3042%
7,O=C(CN1CCN(C(=O)C2COc3ccccc3O2)CC1)Nc1ccc2c(c1)OCCO2 (centres unmarked) [CBK074777],88.1932%
8,O=c1n(C(c2ccccc2)c2ccccc2)ccn1S(=O)(=O)c1ccc2ccccc2c1 [CBK106623],78.8165%
9,Cc1cc(CNC(=O)c2cc3ccccc3oc2=O)c2ccccc2n1 [CBK269834],122.417%
10,Cc1nc(C)n(CC(=O)NCCCc2ccc(Cl)cc2)n1 [CBK281559],111.316%
11,O=C(C1=C(O)C(=O)N(CCN2CCOCC2)C1c1cccc(Br)c1)c1ccco1 (centres unmarked) [CBK264490],138.963%
12,c1ccc(CN(Cc2ccccc2)Cn2c3ccccc3c3ccccc32)cc1 [CBK263575],112.956%
13,O=C1CCCN1CCC(=O)N1CCCC1c1nc2ccccc2[nH]1 (centres unmarked) [CBK283981],106.301%
14,Cn1c(=O)c2c(ncn2CC(=O)Nc2ccc3ccccc3c2)n(C)c1=O [CBK133722],91.6691%
15,Fc1ccc(Sc2ccc(C(F)(F)F)cn2)cc1 [CBK115235],173.185%
16,CCn1cc(C(=O)N2CCCC2c2nc3ccccc3[nH]2)c(C)n1 (centres unmarked) [CBK283777],117.51%
17,COc1cc(Nc2cncc(-c3ccc(O)cc3)n2)c(Cl)cc1C(=O)NCCCN(C)C [CBK122651],131.047%
18,CC(C)[C@H](CO)n1c(=O)[nH]c2ncc(-c3cccc4ccccc34)nc21 [CBK064985],174.013%
19,Cc1ccc(C(=O)NCC2COc3ccccc3O2)c(N2CCOCC2)n1 (centres unmarked) [CBK076519],95.4392%
20,Cc1nn(Cc2ccc(C(=O)N3CCN(Cc4ccccc4)CC3)o2)c(C)c1Br [CBK265796C],125.415%
21,CCn1cc(NCc2ccccc2Cl)c(C(=O)O)n1 [CBK286807],107.84%
22,O=C1N[C@@H]2CCN(C(=O)C3CC3)[C@@H]2C(=O)N1c1ccc(F)cc1 [CBK289324],137.867%
23,O=C(Nc1ccc2ncccc2c1)c1cccnc1 [CBK159820],94.2531%
24,Cc1cc(C)n(C2CCN(Cc3ccc(-n4ccnc4C)cc3)CC2)n1 [CBK281976],102.804%
25,NC(=O)c1[nH]nc(C2OC(CO)C(O)C2O)c1O (centres unmarked) [CBK201236],45.2161%
26,CS(=O)(=O)Nc1nccnc1OC1CCN(CCCC#N)CC1 [CBK084276],90.6303%
27,C[C@H](NC(=O)C1CC(=O)N(c2ccc(F)cc2)C1)C(=O)N1CCC(C(=O)O)CC1 (some centres unmarked) [CBK286733],133.818%

# 3 entries already listed, arranged by heavy-atom count, smallest number first.
row,Structure (SMILES),% of control remaining
10,Cc1nc(C)n(CC(=O)NCCCc2ccc(Cl)cc2)n1 [CBK281559],111.316%
14,Cn1c(=O)c2c(ncn2CC(=O)Nc2ccc3ccccc3c2)n(C)c1=O [CBK133722],91.6691%
17,c1ccc(CSc2nnc(COc3cccc4ccccc34)n2Cc2ccccc2)cc1 [CBK267215],118.639%

# The results go on:

row,Structure (SMILES),% of control remaining
1,Cc1ccc(N(CC(=O)Nc2cccc3cccnc23)S(=O)(=O)c2ccc(C)cc2)cc1 [CBK262201],89.4892%
2,Oc1ccc(/C=N/N(Cc2ccccc2)Cc2ccccc2)cc1 [CBK261414],112.348%
3,CCN1CC(C(=O)N2CCCC(CN(C)C)C2)CC1=O (centres unmarked) [CBK282064],99.0256%
4,Cc1cc2cc(CN(CC3CCCO3)C(=O)C3CC3)c(Cl)nc2cc1C (centres unmarked) [CBK109881],94.7983%
5,CN(C)S(=O)(=O)c1cccc(C(=O)NCCc2ccccc2)c1 [CBK267793],137.656%
6,CC(NC(=O)N(Cc1ccccc1C(F)(F)F)CC(C)(C)CN)c1cccc2ccccc12 (centres unmarked) [CBK002422C],46.4836%
7,COc1ccccc1CNC(=O)c1cc(-c2ccccc2)nc2ccccc12 [CBK294458],122.724%
8,CN(C)CCCN(Cc1cnn(C)c1)Cc1ccco1 [CBK283039],110.047%
9,Nc1ncc(-c2ccoc2)nc1-c1ccc(F)c(Cl)c1 [CBK063982],140.17%
10,COCc1cccc(-c2nccnc2OCC(=O)OC)c1 [CBK106976],114.528%
11,Cc1cccc(C(=O)N2CCCC(C)C2)c1 (centres unmarked) [CBK074057],111.162%
12,COc1ccc([C@H](O)[C@@H]2CCCN(C(=O)OC(C)(C)C)C2)cc1 [CBK284311],118.144%
13,CN(C)CCNC(=O)c1ccc2[nH]ccc2c1 [CBK149062],91.839%
14,CS(=O)(=O)N[C@H]1C[C@H]2C(=O)Nc3cc(Cl)ccc3C(=O)N2C1 [CBK289363],146.994%
15,COc1cc(Nc2nc(-c3ccccc3F)cn3ccnc23)cc(OC)c1OC [CBK037301],115.03%
16,COc1ccc(CNC(=O)Cn2nnc(-c3ccc(NC(=O)C4CCCCC4)cc3)n2)cc1 [CBK135876],96.6246%
17,CN1CCN(C(=O)c2[nH]c3ccccc3c2NS(=O)(=O)Cc2ccccc2[N+](=O)[O-])CC1 [CBK050059],126.513%
18,OCCN1CCN(c2nccnc2-c2cccs2)CC1 [CBK088811],124.681%
19,OC[C@H]1OCC[C@H]1O [CBK201263],105.831%
20,Cc1c(Cl)cccc1S(=O)(=O)Nc1ccsc1C(=O)O [CBK004549],102.588%
21,COc1ccc(-c2c(C(F)(F)F)oc3cc(OC(=O)c4cccc(C)c4)ccc3c2=O)cc1OC [CBK263907],91.018%
22,COCCNC(=O)Cn1c(-c2cccs2)cc2cccnc21 [CBK282554],89.554%
23,O=C(NCc1ccc(F)cc1)c1ccc(=O)n(CC(=O)N2CCC3(CCCCC3)C2)c1 [CBK286021],103.684%
24,COCCn1ccc(NC(=O)N2CCCC(c3cc(F)ccc3F)C2)n1 (centres unmarked) [CBK305451],131.75%
25,O=C1NCC(c2ccccc2)C1C(=O)N/N=C\c1cc(O)ccc1[N+](=O)[O-] (centres unmarked) [CBK262772],119.792%
26,Cc1cc(N2CCN(Cc3nc(C(C)(C)C)no3)CC2)nc(C(C)C)n1 [CBK305333],97.0638%

# Reference: PMC12040169 (PLOS Biology, 2025)
